For test [1], the target named is FLAG-RhoA (UniProt P61586). The test can be described thus: co-IP; HT cells stably expressing FLAG-RhoA, transfected with the indicated plasmids; 1% Nonidet P-40 lysis buffer (50 mM Tris-HCl pH 7.4, 150 mM NaCl, 5% glycerol, 1 mM Na3VO4); antibody 2 h at 4 °C, then Protein A/G beads 2 h; western blot.
In test [2] the target is T1, RhoGDIγ (transfected into HT cells stably expressing FLAG-RhoA) (UniProt Q99819).
T1 sequence: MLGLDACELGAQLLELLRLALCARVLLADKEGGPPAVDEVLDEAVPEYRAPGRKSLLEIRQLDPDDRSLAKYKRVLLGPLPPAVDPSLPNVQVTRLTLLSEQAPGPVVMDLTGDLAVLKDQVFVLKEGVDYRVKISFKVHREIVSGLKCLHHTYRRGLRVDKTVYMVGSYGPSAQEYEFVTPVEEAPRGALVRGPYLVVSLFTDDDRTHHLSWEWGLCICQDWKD
The description is as above.

Sequences of proteins named here, by UniProt entry; tags and fusion partners are left off.
UniProt P61586: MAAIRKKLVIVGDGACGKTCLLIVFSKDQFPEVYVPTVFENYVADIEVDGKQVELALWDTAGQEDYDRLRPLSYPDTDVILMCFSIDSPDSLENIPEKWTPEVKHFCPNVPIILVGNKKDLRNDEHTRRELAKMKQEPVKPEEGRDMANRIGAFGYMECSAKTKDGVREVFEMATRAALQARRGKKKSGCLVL

These are yes or no findings as the source states them, for the method shown. Binding seen in cells or lysates may run through a third protein. Some binding calls cover weakened binding; strength is not graded here. Tags and fused reporters may be left off the sequences shown.

Consider 2 molecules from article PMC6135800, “STAT3-coordinated migration facilitates the dissemination of diffuse large B-cell lymphomas” (Nature Communications, 2018).

B1: RhoGDIγ (transfected into HT cells stably expressing FLAG-RhoA) (protein, UniProt Q99819 1-225)
chain: MLGLDACELGAQLLELLRLALCARVLLADKEGGPPAVDEVLDEAVPEYRAPGRKSLLEIRQLDPDDRSLAKYKRVLLGPLPPAVDPSLPNVQVTRLTLLSEQAPGPVVMDLTGDLAVLKDQVFVLKEGVDYRVKISFKVHREIVSGLKCLHHTYRRGLRVDKTVYMVGSYGPSAQEYEFVTPVEEAPRGALVRGPYLVVSLFTDDDRTHHLSWEWGLCICQDWKD
Consider B1, for which the binding entry in test [1] is “binds”.

B2: GST-RhoH (natural protein, UniProt Q15669 1-191, looked up)
chain: MLSSIKCVLVGDSAVGKTSLLVRFTSETFPEAYKPTVYENTGVDVFMDGIQISLGLWDTAGNDAFRSIRPLSYQQADVVLMCYSVANHNSFLNLKNKWIGEIRSNLPCTPVLVVATQTDQREMGPHRASCVNAMEGKKLAQDVRAKGYLECSALSNRGVQQVFECAVRTAVNQARRRNRRRLFSINECKIF
notes: RhoH; the only GST vector named is pEBG-RhoH, made by inserting full-length cDNAs (RhoH: NM_001278369); also called GST-tagged RhoH; source: E. coli DH5α, IPTG induction, purified (glutathione-Sepharose, eluted with reduced glutathione)
Turning to B2, in test [2], the binding entry was “binds”.
